Data: patent publication EP4342467A1, “KU INHIBITORS FOR USE IN TUMOR THERAPY” (Masarykova Univerzita, priority 2022, dated 2024)
Some of these results come from one statement about several compounds together.

Assays:
HCT116 cells [1] = test: cell proliferation, ATPlite assay; assay type: cell-based, human; conditions: HCT116, U2OS and HeLa cells
Description: HCT116, U2OS and HeLa cells were grown in McCoy's 5a medium supplemented with 10% Fetal Bovine Serum, 2 mM L-Glutamine and Penicilin/Streptomycin 200 U/l each in the presence of Compound 1-9. After growth at 37 °C, 5% CO2 for 3 days, monolayer of cells was detached using TrypLE Express (Gibco), cells were counted using 0.4% trypan blue stain and hemocytometer. […] Number of viable cells was estimated using ATPlite kit (Perkin Elmer).

HCT116 cells [2] = test: C-circle assay (extrachromosomal circular telomeric DNA); assay type: cell-based, human; conditions: HCT116 incubated for 3, 5 or 7 days
Description: HCT116 cell were incubated for 3, 5 or 7 days in McCoy's 5a medium with 10% Fetal Bovine Serum, 2 mM L-Glutamine and Penicilin/Streptomycin 200 U/l each and supplemented with Compound 1-9. C-circle assay that utilizes rolling circle amplification of circular DNA by φ29 polymerase was performed as described in Henson, J.D., Lau, L.M., Koch, S., Martin La Rotta, N., Dagg, R.A., and Reddel, R.R. (2017). The C-Circle Assay for alternative-lengthening-of-telomeres activity. Methods 114, 74-84. Amplified circular telomeric DNA was detected by dot blot hybridization with P^32-labeled telomeric DNA oligonucleotide (5'-[…]-3' (SEQ ID NO: 6)) (Figure 4).

| SMILES | proliferation of human tumor cell lines (HCT116 cells [1]) | formation of extrachromosomal circular telomeric DNA (HCT116 cells [2]) |
| --- | --- | --- |
| O=C(Nc1nc(-c2cccnc2)cs1)c1cncc(Br)c1 [Compound 7] | inhibit proliferation of human tumor cell lines | induce the formation of extrachromosomal circular telomeric DNA |
| O=C(Nc1nc(-c2ccccn2)cs1)c1ccc(NC2CC2)nc1 [Compound 4] | inhibit proliferation of human tumor cell lines | induce the formation of extrachromosomal circular telomeric DNA |
| O=C(Nc1nc(-c2ccccc2)cs1)c1cncc(Br)c1 [Compound 8] | inhibit proliferation of human tumor cell lines | induce the formation of extrachromosomal circular telomeric DNA |
| CC(=O)Nc1ccc(-c2csc(NC(=O)c3cncc(Br)c3)n2)cc1 [Compound 6] | inhibit proliferation of human tumor cell lines | induce the formation of extrachromosomal circular telomeric DNA |
| O=C(Nc1nc(-c2ccccn2)cs1)c1cncc(Br)c1 [Compound 1] | inhibit proliferation of human tumor cell lines | induce the formation of extrachromosomal circular telomeric DNA |
| CC(=O)NCCc1ccc(-c2csc(NC(=O)c3cncc(Br)c3)n2)cc1 [Compound 5] | inhibit proliferation of human tumor cell lines | induce the formation of extrachromosomal circular telomeric DNA |
